Experimental data: article PMC3749933

Target: T1, FLAG-tagged CESA9 (rice) (UniProt Q69P51)
T1 sequence: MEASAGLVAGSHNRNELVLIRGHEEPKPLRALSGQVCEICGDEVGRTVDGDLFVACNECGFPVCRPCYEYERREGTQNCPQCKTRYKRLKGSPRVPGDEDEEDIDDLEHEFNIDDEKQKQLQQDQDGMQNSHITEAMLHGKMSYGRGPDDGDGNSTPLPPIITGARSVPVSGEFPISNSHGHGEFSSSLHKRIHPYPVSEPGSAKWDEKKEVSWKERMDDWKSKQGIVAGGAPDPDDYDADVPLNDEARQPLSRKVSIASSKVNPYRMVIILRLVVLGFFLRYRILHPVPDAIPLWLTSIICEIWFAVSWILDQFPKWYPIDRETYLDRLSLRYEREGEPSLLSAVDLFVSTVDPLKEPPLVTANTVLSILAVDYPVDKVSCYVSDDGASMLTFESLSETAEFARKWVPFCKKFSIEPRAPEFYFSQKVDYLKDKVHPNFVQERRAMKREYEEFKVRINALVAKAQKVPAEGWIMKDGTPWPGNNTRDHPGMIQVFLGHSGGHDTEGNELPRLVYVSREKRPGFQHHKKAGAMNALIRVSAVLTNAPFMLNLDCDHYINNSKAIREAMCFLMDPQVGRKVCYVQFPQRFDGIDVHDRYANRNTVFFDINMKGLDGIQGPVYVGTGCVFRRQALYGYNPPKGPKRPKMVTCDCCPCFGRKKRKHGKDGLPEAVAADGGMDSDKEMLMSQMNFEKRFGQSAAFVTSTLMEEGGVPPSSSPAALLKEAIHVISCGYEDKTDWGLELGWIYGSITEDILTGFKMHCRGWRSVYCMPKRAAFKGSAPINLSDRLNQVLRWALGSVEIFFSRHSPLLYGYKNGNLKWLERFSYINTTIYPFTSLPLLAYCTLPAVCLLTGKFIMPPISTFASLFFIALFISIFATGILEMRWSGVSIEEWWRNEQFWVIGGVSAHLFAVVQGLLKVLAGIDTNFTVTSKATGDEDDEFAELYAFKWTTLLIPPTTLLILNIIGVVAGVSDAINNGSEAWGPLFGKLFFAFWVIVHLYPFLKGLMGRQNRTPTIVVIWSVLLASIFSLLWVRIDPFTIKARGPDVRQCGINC
Test: co-IP; total membrane proteins from young internodes of transgenic rice expressing FLAG-CESA9, incubated with anti-FLAG M2 affinity gel overnight at 4°C; input and output blotted with anti-CESA, anti-BC1 and anti-UGPase antibodies

binding: no binding
Substance: UDP-glucose pyrophosphorylase (rice (endogenous in rice internodes)) (enzyme)

Results are given in words; binding and its absence hold for the method and conditions named. Binding seen in cells or lysates may run through a third protein. Where a sequence is shown, tags or fusion partners need not be part of it.
